Measurements reported in PubChem BioAssay AID1259405 (NCATS, 2018)
The whole screen tested about 50,000 reagents; this is a part drawn at random. About 4,000 of them (8%) count as active. 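Mouse siRNA library applied to hamster cells; one well for each siRNA.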 A number with no mark means an inactive call. Further read-outs or replicates are left out here.

Test: 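Knock-downs that lift recombinant protein yield in hamster ovary cells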 (primary screen)
Cells: Chinese hamster CHO-K1 ovary cells with stable secreted eGFP expression
Reagents: single siRNA against mouse genes, 0.8 pmol siRNA per well (2 µl of 400 nM stock)
Timing: 3 days
Measured: 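Percent of the per-plate non-targeting control median for intracellular GFP per well by laser scanning cytometry and for cell viability by ATP luminescence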
Direction: GFP, % of control: higher = more GFP per well, higher productivity
Active means: 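a knock-down is called active if GFP reaches 120% or more of non-targeting control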

GFP, % of control, by target gene and reagent
Angptl6 (angiopoietin-like 6): SID363572185 90.8; SID363573945 118
Tjp2 (tight junction protein 2): SID363572695 26.7; SID363577975 101; SID363582199 78.4
Mrpl38 (mitochondrial ribosomal protein L38): SID363545657 31.9; SID363549170 87.6; SID363562976 74.8
Mrpl50 (mitochondrial ribosomal protein L50): SID363562191 92.3; SID363567329 111; SID363584686 91
F13b (coagulation factor XIII, beta subunit): SID363553662 65.6; SID363561619 90.9; SID363565357 125 (active)
Mob2 (MOB kinase activator 2): SID363573396 57; SID363588635 81.7
Tcf7 (transcription factor 7, T cell specific): SID363569110 107; SID363583542 118
Vmn1r5 (vomeronasal 1 receptor 5): SID363556668 148 (active); SID363563572 123 (active); SID363587118 75.1
Nudcd1 (NudC domain containing 1): SID363542605 61; SID363552096 125 (active); SID363559701 89.6
Tnk2 (tyrosine kinase, non-receptor, 2): SID363547391 110; SID363558160 69.4; SID363559918 86.4
Stk39 (serine/threonine kinase 39): SID363571064 107; SID363571416 77.4; SID363571768 69.7
Kri1 (KRI1 homolog): SID363546879 19.1; SID363549691 72.1; SID363587745 87.1
Plekha8 (pleckstrin homology domain containing A8): SID363546088 101; SID363549601 116; SID363563407 45.7

Active calls (from the list above):
GFP, % of control, by target gene and reagent
F13b (coagulation factor XIII, beta subunit): SID363565357 125 (active)
Vmn1r5 (vomeronasal 1 receptor 5): SID363556668 148 (active); SID363563572 123 (active)
Nudcd1 (NudC domain containing 1): SID363552096 125 (active)

The list goes on.
GFP, % of control, by target gene and reagent
P4htm (prolyl 4-hydroxylase, transmembrane (endoplasmic reticulum)): SID363545355 39.3; SID363548868 76; SID363562674 63.5
Tspan2 (tetraspanin 2): SID363544059 67.3; SID363550387 37.4; SID363556936 81.1
Cby1 (chibby family member 1, beta catenin antagonist): SID363540830 74.9; SID363543281 69.4; SID363552774 79
Vps50 (VPS50 EARP/GARPII complex subunit): SID363543351 92.2; SID363552844 35.6; SID363558692 65.6
Gnaq (guanine nucleotide binding protein, alpha q polypeptide): SID363570111 120 (active); SID363576447 117; SID363579615 56.1
Prrg4 (proline rich Gla (G-carboxyglutamic acid) 4 (transmembrane)): SID363542837 55.9; SID363546354 79.1; SID363548110 87.1
Kmt2b (lysine (K)-specific methyltransferase 2B): SID363569581 145 (active); SID363577325 116; SID363578733 94.1
Cryab (crystallin, alpha B): SID363572313 78.1; SID363574073 84.3
Zfp950 (zinc finger protein 950): SID363547068 21.2; SID363549880 112; SID363587934 85.9
Gk (glycerol kinase): SID363547449 98.9; SID363558218 121 (active); SID363559976 105
Mrps16 (mitochondrial ribosomal protein S16): SID363553912 61.9; SID363561869 102; SID363565607 50.2
Nop14 (NOP14 nucleolar protein): SID363554004 86.4; SID363561961 56.9; SID363565699 79.3
Atp8b1 (ATPase, class I, type 8B, member 1): SID363569691 66.9; SID363576731 91.7; SID363578139 93.4
Rab4b (RAB4B, member RAS oncogene family): SID363570041 49.8; SID363576377 65; SID363579545 130 (active)
Rhox12 (reproductive homeobox 12): SID363546043 82.5; SID363549556 79.8; SID363563362 59.5
Asxl2 (ASXL transcriptional regulator 2): SID363546673 114; SID363548429 55.1; SID363560607 90
Tafa1 (TAFA chemokine like family member 1): SID363550334 75.5; SID363564843 39.3; SID363588388 67.1
